Results are given in words; binding and its absence hold for the method and conditions named. Binding seen in cells or lysates may run through a third protein. Some binding calls cover weakened binding; strength is not graded here.
What was measured:
Assay in all cases: co-IP; protein extracts of wild type S. pombe cells expressing chromosomally tagged proteins; 500 ug protein, IP with anti-MYC or anti-FLAG overnight at 4 C, protein A/G sepharose; lysis buffer PBS pH 7.0, 200 mM NaCl, 0.5 mM EGTA, 0.5 mM EDTA, 0.1% Triton X100; five washes at 220 mM NaCl; blots with anti-HA, anti-FLAG or anti-MYC
Bdf1 (S. pombe) = molecular target: T1, Bdf1 (S. pombe) (UniProt Q9Y7N0)
T1 sequence: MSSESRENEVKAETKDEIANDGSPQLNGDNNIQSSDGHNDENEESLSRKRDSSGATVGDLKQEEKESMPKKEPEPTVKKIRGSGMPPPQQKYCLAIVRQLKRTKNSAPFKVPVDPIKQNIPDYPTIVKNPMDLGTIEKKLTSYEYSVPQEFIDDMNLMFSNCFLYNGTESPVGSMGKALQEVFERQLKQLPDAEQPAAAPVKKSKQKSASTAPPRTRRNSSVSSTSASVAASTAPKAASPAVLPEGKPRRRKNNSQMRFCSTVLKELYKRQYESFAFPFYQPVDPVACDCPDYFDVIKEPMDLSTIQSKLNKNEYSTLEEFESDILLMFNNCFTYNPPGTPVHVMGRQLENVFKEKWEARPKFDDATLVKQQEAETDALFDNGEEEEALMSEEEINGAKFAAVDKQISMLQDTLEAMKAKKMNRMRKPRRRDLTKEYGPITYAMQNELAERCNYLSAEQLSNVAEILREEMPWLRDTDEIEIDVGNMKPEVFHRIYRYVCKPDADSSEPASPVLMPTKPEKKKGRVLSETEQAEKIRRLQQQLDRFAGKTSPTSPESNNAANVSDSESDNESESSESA

Epe1 (S. pombe) = molecular target: T2, Epe1 (S. pombe) (UniProt O94603)
T2 sequence: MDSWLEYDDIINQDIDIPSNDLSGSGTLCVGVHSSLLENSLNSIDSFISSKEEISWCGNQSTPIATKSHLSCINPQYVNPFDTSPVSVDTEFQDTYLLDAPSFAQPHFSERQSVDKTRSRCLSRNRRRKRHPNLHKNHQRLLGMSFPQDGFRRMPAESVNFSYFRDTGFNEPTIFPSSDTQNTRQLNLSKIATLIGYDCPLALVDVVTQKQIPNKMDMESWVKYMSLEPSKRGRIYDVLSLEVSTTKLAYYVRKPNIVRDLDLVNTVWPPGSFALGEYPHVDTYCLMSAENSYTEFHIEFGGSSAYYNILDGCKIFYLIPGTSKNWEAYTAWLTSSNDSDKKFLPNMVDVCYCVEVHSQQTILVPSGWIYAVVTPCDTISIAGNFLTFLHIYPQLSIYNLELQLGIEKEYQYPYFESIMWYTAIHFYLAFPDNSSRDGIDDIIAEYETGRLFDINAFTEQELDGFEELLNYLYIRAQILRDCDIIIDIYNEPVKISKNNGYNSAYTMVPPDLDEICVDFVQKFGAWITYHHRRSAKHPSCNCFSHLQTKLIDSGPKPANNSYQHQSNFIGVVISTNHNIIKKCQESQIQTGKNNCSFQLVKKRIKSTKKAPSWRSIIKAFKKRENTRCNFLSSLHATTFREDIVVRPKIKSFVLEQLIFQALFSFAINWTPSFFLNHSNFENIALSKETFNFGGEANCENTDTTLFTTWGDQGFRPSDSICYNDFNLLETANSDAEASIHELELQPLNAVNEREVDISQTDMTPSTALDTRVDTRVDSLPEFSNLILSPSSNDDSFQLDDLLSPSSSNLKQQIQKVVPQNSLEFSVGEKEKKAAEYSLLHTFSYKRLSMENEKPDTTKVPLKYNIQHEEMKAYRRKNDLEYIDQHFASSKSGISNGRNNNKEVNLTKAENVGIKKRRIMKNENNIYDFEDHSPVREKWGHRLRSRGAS

Taf5 (S. pombe) = molecular target: T3, Taf5 (S. pombe) (UniProt O13282)
T3 sequence: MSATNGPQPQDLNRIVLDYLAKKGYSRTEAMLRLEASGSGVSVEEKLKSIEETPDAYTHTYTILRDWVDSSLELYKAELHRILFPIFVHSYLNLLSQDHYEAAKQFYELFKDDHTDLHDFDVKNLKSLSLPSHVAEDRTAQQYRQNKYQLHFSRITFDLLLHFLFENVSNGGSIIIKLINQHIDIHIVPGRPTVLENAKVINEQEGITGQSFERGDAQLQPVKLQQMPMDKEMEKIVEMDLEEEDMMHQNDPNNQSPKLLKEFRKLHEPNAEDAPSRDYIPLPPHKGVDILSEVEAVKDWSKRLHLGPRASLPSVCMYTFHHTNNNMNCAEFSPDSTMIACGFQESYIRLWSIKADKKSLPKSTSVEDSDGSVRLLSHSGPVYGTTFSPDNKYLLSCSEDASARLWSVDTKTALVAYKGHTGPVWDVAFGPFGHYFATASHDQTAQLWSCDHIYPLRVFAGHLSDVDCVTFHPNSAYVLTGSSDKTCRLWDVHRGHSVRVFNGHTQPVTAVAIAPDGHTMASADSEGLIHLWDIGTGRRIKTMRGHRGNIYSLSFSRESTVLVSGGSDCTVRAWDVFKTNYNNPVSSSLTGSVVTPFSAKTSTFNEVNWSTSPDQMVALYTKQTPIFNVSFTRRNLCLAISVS

B1: Gad8 (protein, UniProt Q9P7J8 1-569)
chain: MSWKLTKKLKETHLASAIGLNSGGSSFTRGLKNSTLSSTSSRKSSDEKSRKSSEDKRSPQSTVVQPGLLQVTIIEARNLKLPSGHVPANYGVSIDNSLLAPPLSNGSGHARSRSHAWWLPYIVVEFDKNEILVDALNTASLENPCWDYQATFDVSRYSKLSLNIYLRSSSSRSRNGMGNDAFLGGIKLSPSFIVNKLTDEWVPLHGGSGELRVQMLYKPNQSTPLTIDAFELLKVVGKGSFGKVMQVRKRDTSRIYALKTMKKAHIVSRSEVDHTLAERTVLAQVNNPFIVPLKFSFQSPGKLYLVLAFVNGGELFHHLQREGCFDTYRAKFYIAELLVALECLHEFNVIYRDLKPENILLDYTGHIALCDFGLCKLNMAKTDRTNTFCGTPEYLAPELLLGHGYTKVVDWWTLGVLLYEMITGLPPFYDENINEMYRKILQDPLRFPDNIDEKAKDLLSGLLTRAPEKRLGSGGAQEIKNHPFFDDIDWKKLCAKKIQPPFKPSVESAIDTSNFDSEFTSEIPMDSVVADSHLSETVQQRFANWSYQRPTTIDTSDDINTIAPGSVIR
B1 was tested, and the binding (Bdf1 (S. pombe)) was “no binding”, the binding (Epe1 (S. pombe)) was “no binding” and the binding (Taf5 (S. pombe)) was “binds”.

Reference: article PMC8880919
